PubChem BioAssay AID743454 | Peter MacCallum Cancer Centre | 2014
The whole screen tested about 18,000 reagents; below is a random part of them. 450 of all reagents (2.5%) were called active. 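Single biological run; no consistent viability z cut-off exists, so the class columns, not z-scores, define the calls.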

Test: 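Knock-downs lowering viability or raising caspase 3/7 activity in vorinostat-treated resistant cells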 (primary screen)
System: human HCT116-VR colon cancer cells, selected for vorinostat resistance
Knock-down reagent: siRNA pool against human genes, 40 nM siRNA pool
Time to read-out: vorinostat for 24 h, read-out about 72 h after transfection
Challenge: vorinostat at 2.5 µM final
Measurement: 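Two measures, CellTiter-Fluor viability and luminescent caspase 3/7 activity, each as fold change against same-plate mock wells, mean of duplicates, then screen-wide robust z-score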
Direction: viability robust z-score: higher = more viable cells than screen typical; caspase robust z-score: higher = more caspase 3/7 activity than screen typical
Hit rule: 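Hits are knock-downs in viability class RV1/RV2 or caspase class CA1/CA2, excluding ones that killed cells in the no-drug cell-count arm; hits then retested with single siRNAs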

| Target gene | viability hit class | caspase hit class | viability robust z-score | caspase robust z-score | activity call |
| --- | --- | --- | --- | --- | --- |
| ARSF (GeneID 416) | no change | no change | -0.48 | 0 | inactive |
| FDPS (GeneID 2224) | no change | no change | 0.14 | -0.74 | inactive |
| CSNK1A1 (GeneID 1452) | no change | no change | -0.68 | 0.26 | inactive |
| RBP1 (GeneID 5947) | no change | no change | 1 | -0.74 | inactive |
| IFIT1 (GeneID 3434) | no change | no change | 0.8 | 0.51 | inactive |
| ILF2 (GeneID 3608) | no change | no change | 0.68 | 0.2 | inactive |
| RPL14 (GeneID 9045) | no change | no change | -5.96 | -0.32 | inactive |
| RIBC2 (GeneID 26150) | no change | no change | -1 | -0.7 | inactive |
| ID4 (GeneID 3400) | no change | no change | 0.18 | -0.8 | inactive |
| RTN4R (GeneID 65078) | no change | no change | -0.41 | 1.19 | inactive |
| ZNF182 (GeneID 7569) | no change | no change | 0.89 | -0.81 | inactive |
| BCAN (GeneID 63827) | no change | no change | 1.34 | -0.48 | inactive |
| MTHFR (GeneID 4524) | no change | no change | -0.1 | 0.12 | inactive |
| GBE1 (GeneID 2632) | no change | no change | 0.09 | -0.74 | inactive |
| IVD (GeneID 3712) | no change | no change | 1.7 | -0.1 | inactive |
| CDH13 (GeneID 1012) | no change | no change | 0.6 | -0.22 | inactive |
| ST6GALNAC1 (GeneID 55808) | no change | no change | -0.42 | 1.81 | inactive |
| PPP2R5B (GeneID 5526) | no change | no change | 0.14 | 0.56 | inactive |
| DGAT1 (GeneID 8694) | no change | no change | 1.12 | 1.29 | inactive |
| ETV2 (GeneID 2116) | no change | no change | 1.34 | 0.62 | inactive |
| NASP (GeneID 4678) | no change | no change | -0.66 | -1.02 | inactive |
| CDC42EP4 (GeneID 23580) | no change | no change | 0.09 | 3.04 | inactive |
| TSR2 (GeneID 90121) | no change | no change | -1.62 | 0.1 | inactive |
| JDP2 (GeneID 122953) | no change | no change | -0.44 | 2.44 | inactive |
| FOXR2 (GeneID 139628) | no change | no change | -0.32 | -0.95 | inactive |
| MAU2 (GeneID 23383) | no change | no change | -2.37 | 4.48 | inactive |
| PRTG (GeneID 283659) | no change | no change | -0.15 | 0.86 | inactive |
| AVEN (GeneID 57099) | no change | CA1 (caspase activation) | -0.42 | 5.41 | active |
| ACIN1 (GeneID 22985) | no change | no change | -1.5 | 0.36 | inactive |
| ANAPC16 (GeneID 119504) | no change | no change | 1.18 | -0.6 | inactive |
| CLIP3 (GeneID 25999) | no change | no change | 0.9 | 1.21 | inactive |
| RPL32 (GeneID 6161) | no change | no change | -5.2 | -1.05 | inactive |
| PUS7 (GeneID 54517) | no change | no change | -0.38 | -1.03 | inactive |
| FOS (GeneID 2353) | no change | no change | -1.75 | 1.86 | inactive |
| KCNS1 (GeneID 3787) | no change | no change | 0.49 | -0.25 | inactive |
| SERPINC1 (GeneID 462) | no change | no change | 0.52 | -0.91 | inactive |
| GAPVD1 (GeneID 26130) | no change | no change | 1 | -0.48 | inactive |
| SAT2 (GeneID 112483) | no change | no change | 1.21 | -1.02 | inactive |
| FAM120C (GeneID 54954) | no change | no change | -0.56 | 0.12 | inactive |
| MORF4L1 (GeneID 10933) | no change | no change | -0.86 | 3.8 | inactive |
| LRAT (GeneID 9227) | no change | no change | -0.3 | -0.75 | inactive |
| FUT6 (GeneID 2528) | no change | no change | -1.25 | 1.5 | inactive |
| NR1H2 (GeneID 7376) | no change | CA2 (caspase activation) | -2.3 | 9.84 | active |
| RBM45 (GeneID 129831) | no change | no change | 0.31 | -0.72 | inactive |
| PIN1 (GeneID 5300) | no change | no change | 1.58 | 0.36 | inactive |
| PDZD2 (GeneID 23037) | no change | no change | -0.74 | -0.1 | inactive |
| COIL (GeneID 8161) | no change | no change | -1.44 | -1.11 | inactive |
| E2F2 (GeneID 1870) | no change | CA1 (caspase activation) | 0.1 | 5.7 | active |
| DTD1 (GeneID 92675) | no change | no change | -0.36 | 1.36 | inactive |
| ZNF44 (GeneID 51710) | no change | no change | -1.1 | 0.13 | inactive |
| DCAF6 (GeneID 55827) | no change | no change | 0.36 | -0.38 | inactive |
| TAGLN (GeneID 6876) | no change | no change | -2.12 | 0.04 | inactive |
| MBNL3 (GeneID 55796) | no change | no change | -3.94 | 1.78 | inactive |
| GABRQ (GeneID 55879) | no change | no change | -1.66 | 0.06 | inactive |
| RRAGD (GeneID 58528) | no change | no change | -0.38 | 4.47 | inactive |
| POGLUT1 (GeneID 56983) | no change | no change | 0.93 | 0.94 | inactive |
| RNASE10 (GeneID 338879) | no change | no change | 0.93 | 2.54 | inactive |
